Reference: publication PMC3778836

Chains of the proteins cited; added tags and fusions are not shown.
UniProt Q13535: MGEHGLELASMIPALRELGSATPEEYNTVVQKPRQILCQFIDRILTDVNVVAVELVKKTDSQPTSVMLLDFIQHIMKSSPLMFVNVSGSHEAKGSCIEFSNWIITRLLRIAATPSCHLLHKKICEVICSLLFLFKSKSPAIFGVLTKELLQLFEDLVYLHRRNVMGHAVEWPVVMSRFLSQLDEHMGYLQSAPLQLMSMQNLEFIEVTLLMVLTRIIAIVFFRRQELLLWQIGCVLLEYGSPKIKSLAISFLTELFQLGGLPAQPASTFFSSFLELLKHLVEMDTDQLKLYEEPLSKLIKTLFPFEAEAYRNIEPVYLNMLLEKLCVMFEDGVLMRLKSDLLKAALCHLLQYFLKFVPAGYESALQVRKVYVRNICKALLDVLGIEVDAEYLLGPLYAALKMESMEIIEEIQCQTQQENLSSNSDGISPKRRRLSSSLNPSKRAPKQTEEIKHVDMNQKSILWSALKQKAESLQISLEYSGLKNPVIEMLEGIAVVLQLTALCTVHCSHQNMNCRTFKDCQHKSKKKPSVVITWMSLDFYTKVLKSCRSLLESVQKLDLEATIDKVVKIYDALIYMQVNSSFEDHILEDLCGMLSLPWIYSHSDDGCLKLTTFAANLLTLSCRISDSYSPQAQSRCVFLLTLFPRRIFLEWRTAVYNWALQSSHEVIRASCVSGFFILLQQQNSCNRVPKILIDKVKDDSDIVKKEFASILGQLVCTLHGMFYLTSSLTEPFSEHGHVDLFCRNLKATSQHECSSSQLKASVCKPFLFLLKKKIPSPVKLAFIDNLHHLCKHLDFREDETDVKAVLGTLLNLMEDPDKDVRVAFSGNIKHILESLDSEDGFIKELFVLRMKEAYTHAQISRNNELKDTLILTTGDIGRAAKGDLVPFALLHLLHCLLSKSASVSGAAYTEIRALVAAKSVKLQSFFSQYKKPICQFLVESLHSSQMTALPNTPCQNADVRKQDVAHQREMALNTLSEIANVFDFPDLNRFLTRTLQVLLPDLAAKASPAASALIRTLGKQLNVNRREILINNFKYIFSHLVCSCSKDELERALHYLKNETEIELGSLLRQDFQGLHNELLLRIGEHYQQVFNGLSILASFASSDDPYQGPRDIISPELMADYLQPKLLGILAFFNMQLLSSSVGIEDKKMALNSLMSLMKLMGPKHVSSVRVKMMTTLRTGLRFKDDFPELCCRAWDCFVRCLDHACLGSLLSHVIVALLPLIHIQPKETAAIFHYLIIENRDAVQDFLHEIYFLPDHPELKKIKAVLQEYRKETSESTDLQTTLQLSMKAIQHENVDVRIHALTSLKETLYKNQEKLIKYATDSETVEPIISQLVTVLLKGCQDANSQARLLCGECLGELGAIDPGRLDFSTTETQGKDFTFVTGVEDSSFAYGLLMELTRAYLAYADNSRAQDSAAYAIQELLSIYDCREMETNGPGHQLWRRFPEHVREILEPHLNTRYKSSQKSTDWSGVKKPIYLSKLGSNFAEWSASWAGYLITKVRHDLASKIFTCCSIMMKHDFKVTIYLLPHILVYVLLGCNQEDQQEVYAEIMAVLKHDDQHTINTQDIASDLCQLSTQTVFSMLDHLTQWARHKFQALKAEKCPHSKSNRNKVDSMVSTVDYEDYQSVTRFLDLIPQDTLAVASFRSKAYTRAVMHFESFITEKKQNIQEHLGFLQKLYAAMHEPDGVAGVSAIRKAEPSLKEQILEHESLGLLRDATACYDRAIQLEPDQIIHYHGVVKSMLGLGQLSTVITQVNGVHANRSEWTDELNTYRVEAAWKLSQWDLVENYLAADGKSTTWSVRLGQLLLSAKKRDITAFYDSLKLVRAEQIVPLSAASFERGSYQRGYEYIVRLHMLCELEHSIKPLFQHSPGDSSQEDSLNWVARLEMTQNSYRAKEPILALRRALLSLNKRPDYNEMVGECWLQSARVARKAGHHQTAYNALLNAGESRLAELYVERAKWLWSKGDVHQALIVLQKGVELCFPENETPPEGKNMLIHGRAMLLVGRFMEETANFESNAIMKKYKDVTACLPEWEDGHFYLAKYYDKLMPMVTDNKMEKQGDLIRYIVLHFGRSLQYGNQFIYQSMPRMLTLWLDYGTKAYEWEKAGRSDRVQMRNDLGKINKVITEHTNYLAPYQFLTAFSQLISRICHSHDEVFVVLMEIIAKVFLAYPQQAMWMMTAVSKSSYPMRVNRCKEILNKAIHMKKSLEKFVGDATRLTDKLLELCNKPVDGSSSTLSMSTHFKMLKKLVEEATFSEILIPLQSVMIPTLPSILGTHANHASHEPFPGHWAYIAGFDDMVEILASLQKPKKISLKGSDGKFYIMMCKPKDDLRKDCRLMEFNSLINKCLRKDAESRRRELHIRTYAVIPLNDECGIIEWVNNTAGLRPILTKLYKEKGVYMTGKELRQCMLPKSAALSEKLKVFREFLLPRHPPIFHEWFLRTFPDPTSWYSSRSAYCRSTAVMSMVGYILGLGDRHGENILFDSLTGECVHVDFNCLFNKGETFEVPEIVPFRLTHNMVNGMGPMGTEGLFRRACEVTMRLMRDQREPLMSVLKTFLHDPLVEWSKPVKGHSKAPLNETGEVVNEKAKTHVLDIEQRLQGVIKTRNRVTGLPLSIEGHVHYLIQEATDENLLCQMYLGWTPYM

Key:
Experiment in all cases: affinity purification with mass spectrometry; FLAG-HA-tagged bait stably expressed in HeLa S3; sequential anti-FLAG (M2 agarose, FLAG peptide elution) and anti-HA (12CA5) immunoprecipitation from nuclear extract; washes in 100 mM KCl, 20 mM Tris-HCl pH 8.0, 5 mM MgCl2, 10% glycerol, 0.1% Tween-20; 4-20% gradient gel, gel sections by LC-MS
[1] = target: T1, FLAG-HA epitope-tagged HELQ (human) (UniProt Q8TDG4)
T1 sequence: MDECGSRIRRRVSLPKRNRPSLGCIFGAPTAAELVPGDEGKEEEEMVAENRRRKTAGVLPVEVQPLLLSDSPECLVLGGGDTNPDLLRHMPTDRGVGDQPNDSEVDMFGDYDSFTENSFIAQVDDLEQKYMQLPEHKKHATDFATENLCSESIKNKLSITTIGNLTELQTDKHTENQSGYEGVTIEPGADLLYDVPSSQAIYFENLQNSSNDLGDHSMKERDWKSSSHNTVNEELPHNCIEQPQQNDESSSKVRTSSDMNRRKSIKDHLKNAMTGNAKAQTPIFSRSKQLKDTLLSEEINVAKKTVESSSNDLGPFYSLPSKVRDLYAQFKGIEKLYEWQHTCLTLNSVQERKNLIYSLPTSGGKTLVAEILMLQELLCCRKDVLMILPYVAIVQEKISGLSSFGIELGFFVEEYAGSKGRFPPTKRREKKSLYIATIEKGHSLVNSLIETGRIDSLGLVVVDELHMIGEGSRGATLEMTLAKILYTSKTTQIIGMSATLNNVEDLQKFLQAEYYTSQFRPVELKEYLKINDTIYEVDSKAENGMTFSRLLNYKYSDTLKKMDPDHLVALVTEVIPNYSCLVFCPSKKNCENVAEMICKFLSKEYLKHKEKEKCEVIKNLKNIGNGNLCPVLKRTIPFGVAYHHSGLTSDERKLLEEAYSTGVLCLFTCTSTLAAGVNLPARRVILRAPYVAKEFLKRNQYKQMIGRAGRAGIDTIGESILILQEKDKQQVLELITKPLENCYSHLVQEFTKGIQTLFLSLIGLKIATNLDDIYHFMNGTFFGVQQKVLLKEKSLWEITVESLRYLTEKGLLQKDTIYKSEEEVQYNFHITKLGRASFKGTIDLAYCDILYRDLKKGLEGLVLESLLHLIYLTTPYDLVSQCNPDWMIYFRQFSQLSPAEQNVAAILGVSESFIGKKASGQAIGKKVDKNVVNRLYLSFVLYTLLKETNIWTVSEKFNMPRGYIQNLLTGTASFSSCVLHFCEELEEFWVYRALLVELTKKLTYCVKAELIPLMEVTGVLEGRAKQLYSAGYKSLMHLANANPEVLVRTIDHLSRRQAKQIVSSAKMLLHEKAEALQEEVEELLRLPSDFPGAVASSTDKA

[2] = target: T2, FLAG-HA epitope-tagged XRCC2 (UniProt O43543)
T2 sequence: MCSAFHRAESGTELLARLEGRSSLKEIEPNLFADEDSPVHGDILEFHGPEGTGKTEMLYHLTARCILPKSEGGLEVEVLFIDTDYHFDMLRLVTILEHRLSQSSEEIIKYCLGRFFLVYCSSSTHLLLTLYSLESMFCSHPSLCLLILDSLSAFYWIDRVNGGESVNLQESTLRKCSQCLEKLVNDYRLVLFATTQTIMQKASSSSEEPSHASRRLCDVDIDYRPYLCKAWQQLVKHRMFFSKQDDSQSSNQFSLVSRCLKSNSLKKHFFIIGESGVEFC

Flag-HA-tagged POLN = target: T3, Flag-HA-tagged POLN (UniProt Q7Z5Q5)
T3 sequence: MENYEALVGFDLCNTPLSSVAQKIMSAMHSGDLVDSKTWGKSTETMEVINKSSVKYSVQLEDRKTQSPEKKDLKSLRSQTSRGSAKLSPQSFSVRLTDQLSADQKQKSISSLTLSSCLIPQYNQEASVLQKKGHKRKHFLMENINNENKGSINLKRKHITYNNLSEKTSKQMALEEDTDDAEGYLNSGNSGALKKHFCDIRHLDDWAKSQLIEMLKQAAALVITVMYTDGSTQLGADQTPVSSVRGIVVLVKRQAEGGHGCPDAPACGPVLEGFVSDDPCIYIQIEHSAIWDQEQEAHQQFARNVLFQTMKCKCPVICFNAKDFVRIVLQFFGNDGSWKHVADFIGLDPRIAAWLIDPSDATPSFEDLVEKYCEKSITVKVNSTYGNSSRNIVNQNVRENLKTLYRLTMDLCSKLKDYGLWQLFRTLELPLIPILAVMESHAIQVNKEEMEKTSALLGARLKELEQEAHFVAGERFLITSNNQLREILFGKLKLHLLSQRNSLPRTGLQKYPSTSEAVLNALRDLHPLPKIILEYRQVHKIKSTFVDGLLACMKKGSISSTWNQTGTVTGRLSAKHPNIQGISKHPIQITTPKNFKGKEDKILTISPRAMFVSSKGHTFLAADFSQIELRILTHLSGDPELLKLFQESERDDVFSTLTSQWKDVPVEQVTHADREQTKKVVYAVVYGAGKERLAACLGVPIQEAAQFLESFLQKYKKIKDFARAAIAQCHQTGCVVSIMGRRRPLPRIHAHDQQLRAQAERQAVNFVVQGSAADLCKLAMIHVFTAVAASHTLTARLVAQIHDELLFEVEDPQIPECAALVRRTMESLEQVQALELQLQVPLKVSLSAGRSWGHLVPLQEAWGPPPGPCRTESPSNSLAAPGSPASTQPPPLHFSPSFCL

## ATR (endogenous, HeLa S3) (from UniProt Q13535 1-2644) (enzyme)
[1]
  binding: binds
[2]
  binding: no binding
Flag-HA-tagged POLN
  binding: no binding

These are yes or no findings as the source states them, for the method shown. In cells and extracts the contact can be indirect. A yes stands for co-enrichment or nearness to the bait. Other partners may have been found. For part of these data: A no says only that the protein was not detected with the bait. Sequences can lack the tags named with a protein.
